# Measured values published in the supplement of paper PMC7666118.
# By UniProt entry, the sequences of proteins in these tests, tags left out. Where a name states a change or a piece, a line headed by the entry shows the natural chain unless it says otherwise.
# UniProt P38919, whole entry: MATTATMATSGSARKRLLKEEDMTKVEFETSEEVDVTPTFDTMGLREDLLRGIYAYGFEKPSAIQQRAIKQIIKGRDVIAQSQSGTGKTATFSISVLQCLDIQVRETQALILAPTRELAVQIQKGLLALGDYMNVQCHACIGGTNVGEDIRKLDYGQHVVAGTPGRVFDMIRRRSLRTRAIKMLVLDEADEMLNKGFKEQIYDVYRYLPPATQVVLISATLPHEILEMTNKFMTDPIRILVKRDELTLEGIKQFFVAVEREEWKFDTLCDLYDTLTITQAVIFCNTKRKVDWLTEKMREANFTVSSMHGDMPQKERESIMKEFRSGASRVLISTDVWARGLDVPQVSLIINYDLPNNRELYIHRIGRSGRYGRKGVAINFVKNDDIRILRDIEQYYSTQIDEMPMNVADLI
# UniProt Q9BXW9: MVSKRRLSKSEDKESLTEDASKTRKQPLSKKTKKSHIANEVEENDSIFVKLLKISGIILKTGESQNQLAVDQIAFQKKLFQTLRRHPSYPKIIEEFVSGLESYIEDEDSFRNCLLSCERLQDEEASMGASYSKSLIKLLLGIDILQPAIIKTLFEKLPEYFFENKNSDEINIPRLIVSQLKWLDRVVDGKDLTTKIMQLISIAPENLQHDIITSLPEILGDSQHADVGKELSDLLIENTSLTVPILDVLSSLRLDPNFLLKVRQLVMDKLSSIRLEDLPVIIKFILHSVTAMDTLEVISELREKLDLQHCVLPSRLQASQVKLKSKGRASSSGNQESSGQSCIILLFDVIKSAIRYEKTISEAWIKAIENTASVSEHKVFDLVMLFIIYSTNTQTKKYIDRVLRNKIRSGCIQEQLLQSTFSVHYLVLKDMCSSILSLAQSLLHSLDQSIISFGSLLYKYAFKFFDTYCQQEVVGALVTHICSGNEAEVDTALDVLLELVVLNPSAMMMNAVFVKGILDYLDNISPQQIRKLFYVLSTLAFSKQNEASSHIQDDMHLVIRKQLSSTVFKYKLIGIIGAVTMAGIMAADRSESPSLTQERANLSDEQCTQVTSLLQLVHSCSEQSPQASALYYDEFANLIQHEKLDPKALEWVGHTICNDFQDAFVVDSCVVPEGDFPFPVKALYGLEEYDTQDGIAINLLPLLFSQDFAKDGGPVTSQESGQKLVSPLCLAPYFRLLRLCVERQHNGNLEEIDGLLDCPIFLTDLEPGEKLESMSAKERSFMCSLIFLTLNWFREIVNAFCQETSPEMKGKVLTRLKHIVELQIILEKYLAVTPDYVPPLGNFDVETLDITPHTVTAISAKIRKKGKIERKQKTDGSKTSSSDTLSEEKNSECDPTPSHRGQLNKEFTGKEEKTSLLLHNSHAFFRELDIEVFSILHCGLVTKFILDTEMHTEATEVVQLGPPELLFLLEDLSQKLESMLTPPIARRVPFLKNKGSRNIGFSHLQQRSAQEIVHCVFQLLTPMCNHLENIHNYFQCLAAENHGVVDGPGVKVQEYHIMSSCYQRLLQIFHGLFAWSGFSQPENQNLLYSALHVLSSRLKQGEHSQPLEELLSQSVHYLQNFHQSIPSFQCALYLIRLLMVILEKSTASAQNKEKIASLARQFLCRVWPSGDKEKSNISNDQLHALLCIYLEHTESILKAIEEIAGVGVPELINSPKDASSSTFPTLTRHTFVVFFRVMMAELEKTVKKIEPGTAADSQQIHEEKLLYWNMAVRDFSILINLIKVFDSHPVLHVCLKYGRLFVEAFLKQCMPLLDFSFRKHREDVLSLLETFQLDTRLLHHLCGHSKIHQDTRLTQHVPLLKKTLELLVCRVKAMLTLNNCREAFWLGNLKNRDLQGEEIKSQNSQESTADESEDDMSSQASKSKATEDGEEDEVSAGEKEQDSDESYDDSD
# UniProt Q96I24: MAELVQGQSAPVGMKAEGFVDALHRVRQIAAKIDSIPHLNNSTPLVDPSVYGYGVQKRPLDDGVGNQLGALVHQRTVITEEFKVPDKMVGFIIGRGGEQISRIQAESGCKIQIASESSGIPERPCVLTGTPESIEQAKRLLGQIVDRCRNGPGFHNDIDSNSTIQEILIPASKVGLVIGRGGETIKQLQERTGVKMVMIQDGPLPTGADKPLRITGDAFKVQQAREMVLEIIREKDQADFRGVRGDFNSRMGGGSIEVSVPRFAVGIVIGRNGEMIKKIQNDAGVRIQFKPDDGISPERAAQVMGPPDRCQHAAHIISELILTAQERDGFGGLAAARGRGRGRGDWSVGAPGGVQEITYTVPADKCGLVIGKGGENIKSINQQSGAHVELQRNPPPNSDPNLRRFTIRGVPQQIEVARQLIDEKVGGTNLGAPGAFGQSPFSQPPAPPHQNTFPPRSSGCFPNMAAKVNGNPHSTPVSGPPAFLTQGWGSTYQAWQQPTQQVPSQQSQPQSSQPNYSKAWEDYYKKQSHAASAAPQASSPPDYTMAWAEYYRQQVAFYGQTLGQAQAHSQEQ
# UniProt Q9UK99: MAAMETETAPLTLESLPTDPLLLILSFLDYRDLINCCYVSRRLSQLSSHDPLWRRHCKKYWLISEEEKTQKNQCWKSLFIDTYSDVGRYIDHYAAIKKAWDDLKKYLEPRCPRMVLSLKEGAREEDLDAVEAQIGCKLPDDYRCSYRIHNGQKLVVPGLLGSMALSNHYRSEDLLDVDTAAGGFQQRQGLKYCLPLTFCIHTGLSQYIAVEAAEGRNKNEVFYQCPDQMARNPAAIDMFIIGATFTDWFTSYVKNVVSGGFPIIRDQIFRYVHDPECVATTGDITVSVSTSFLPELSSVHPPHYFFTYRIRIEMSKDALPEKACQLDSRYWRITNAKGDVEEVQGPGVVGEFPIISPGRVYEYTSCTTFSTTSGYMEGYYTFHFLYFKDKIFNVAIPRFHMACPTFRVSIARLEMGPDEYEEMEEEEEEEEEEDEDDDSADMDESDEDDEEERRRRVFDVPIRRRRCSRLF
# UniProt Q5JSP0: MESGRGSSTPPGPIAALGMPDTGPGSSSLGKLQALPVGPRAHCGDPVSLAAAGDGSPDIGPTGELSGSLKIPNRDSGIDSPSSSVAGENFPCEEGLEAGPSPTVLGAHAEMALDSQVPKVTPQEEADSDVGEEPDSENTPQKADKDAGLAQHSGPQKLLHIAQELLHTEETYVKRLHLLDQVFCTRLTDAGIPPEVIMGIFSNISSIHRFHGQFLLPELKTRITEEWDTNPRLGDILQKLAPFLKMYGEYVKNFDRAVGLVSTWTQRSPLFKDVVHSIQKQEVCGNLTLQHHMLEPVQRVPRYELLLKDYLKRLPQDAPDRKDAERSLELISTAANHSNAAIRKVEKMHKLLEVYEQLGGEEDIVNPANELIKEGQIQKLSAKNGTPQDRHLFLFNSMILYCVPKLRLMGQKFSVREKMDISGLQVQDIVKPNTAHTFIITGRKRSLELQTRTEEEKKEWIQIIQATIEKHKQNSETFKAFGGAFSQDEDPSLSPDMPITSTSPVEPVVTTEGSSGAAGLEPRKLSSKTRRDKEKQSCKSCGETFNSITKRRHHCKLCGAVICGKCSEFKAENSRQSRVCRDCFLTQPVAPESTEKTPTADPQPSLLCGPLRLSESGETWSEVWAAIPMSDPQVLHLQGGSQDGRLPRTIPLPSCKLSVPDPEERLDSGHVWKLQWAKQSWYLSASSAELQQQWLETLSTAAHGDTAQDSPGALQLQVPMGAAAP
# UniProt Q9BY44: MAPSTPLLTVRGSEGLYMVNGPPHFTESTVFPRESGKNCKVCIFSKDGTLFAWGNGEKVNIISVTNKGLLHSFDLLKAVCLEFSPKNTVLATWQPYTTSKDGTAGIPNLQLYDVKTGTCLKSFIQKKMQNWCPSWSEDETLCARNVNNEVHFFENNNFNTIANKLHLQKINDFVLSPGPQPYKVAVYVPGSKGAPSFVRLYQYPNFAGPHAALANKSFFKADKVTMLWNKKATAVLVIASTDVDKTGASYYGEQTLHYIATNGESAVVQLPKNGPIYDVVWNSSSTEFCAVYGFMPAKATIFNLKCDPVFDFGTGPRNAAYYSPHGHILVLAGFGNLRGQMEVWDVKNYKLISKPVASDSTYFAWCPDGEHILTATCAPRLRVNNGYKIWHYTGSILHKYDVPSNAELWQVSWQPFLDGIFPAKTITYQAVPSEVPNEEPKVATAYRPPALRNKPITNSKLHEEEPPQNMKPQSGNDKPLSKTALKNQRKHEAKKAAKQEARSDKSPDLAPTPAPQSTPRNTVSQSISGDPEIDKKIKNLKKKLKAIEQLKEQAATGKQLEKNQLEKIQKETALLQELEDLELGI
# UniProt Q0PNE2: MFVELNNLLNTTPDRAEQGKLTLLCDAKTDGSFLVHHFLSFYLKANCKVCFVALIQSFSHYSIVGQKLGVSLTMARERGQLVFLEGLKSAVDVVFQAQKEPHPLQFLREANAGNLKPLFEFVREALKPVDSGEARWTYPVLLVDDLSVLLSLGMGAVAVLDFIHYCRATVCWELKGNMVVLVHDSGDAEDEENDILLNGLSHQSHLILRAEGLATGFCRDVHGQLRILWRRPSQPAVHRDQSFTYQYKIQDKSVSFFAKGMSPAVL
# UniProt O75822, whole entry: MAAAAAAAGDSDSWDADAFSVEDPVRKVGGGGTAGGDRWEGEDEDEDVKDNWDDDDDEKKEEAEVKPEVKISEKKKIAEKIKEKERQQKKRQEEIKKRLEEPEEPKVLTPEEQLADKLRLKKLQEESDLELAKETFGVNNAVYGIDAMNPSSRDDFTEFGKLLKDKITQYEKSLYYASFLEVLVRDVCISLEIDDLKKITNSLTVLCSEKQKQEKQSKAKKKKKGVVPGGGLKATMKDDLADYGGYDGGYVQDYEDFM
# UniProt Q8NEZ5: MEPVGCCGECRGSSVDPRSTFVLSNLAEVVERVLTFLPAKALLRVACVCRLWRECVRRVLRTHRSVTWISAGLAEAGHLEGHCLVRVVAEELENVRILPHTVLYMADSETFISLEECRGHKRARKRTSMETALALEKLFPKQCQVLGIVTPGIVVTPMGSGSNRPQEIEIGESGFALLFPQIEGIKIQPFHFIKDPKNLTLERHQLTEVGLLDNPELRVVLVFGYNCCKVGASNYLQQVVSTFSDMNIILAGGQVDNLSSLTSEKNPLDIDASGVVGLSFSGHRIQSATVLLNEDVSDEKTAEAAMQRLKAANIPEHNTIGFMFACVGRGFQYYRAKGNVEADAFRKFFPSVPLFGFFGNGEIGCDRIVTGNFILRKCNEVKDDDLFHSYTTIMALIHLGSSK
# UniProt Q13868, whole entry: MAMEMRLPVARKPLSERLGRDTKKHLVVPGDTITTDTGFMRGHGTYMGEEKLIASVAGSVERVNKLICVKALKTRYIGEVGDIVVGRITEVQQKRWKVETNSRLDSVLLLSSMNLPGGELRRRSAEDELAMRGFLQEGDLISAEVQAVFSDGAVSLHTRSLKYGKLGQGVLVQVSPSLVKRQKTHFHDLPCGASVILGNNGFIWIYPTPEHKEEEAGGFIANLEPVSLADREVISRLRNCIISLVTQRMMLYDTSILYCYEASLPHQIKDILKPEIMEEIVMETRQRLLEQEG
# UniProt P47813, whole entry: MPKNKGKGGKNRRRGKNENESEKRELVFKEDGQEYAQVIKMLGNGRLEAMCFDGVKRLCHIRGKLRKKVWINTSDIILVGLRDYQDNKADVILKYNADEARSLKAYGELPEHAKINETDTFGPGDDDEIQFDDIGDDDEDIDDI
# UniProt Q8N8S7: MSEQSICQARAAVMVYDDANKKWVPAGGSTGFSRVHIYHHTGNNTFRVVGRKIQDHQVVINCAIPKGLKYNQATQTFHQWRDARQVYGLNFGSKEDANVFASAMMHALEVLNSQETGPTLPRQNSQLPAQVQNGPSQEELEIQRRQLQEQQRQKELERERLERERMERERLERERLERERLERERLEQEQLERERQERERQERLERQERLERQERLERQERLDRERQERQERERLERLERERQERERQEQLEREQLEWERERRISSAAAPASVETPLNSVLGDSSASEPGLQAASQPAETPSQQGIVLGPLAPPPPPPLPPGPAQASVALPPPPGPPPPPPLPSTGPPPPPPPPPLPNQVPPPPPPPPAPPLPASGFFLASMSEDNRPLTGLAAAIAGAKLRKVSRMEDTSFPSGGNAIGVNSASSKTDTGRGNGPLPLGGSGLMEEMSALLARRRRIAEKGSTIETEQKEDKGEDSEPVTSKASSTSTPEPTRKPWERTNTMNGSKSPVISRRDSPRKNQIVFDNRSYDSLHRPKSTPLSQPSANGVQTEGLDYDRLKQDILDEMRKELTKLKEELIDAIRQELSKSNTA
# The list shows a part of the results.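 How the source made its calls: active = dose-dependent thermal stabilisation significant by F-test of dose-response against flat model at 10% FDR; inactive = not significant.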
# Compound: Nc1nc2c(ncn2[C@@H]2O[C@H](COP(=O)(O)OP(=O)(O)OP(=O)(O)O)[C@@H](O)[C@H]2O)c(=O)[nH]1
# Experiment: dose-dependent thermal stabilisation call (2D-TPP, DLPTP, 10% FDR) (binary (1 = stabilised)); higher = stabilised by the compound
# Details: system: Jurkat gel-filtered lysate; concentration range 1-500 µM
row,Target,dose-dependent thermal stabilisation call
1,EIF4A3 (UniProt P38919),active: 1
2,FANCD2 (UniProt Q9BXW9),active: 1
3,EIF3L (UniProt Q9Y262),inactive: 0
4,ELP4 (UniProt Q96EB1),inactive: 0
5,FAM122A (UniProt Q96E09),inactive: 0
6,FUK (UniProt Q8N0W3),inactive: 0
7,EIF3M (UniProt Q7L2H7),inactive: 0
8,FUBP3 (UniProt Q96I24),inactive: 0
9,ERF (UniProt P50548),inactive: 0
10,FBXO3 (UniProt Q9UK99),inactive: 0
11,FRA10AC1 (UniProt Q70Z53),inactive: 0
12,EIF2B2 (UniProt P49770),inactive: 0
13,ERP29 (UniProt P30040),inactive: 0
14,FYCO1 (UniProt Q9BQS8),inactive: 0
15,FLII (UniProt Q13045),inactive: 0
16,ETHE1 (UniProt O95571),inactive: 0
17,FGD3 (UniProt Q5JSP0),inactive: 0
18,EIF2A (UniProt Q9BY44),inactive: 0

# In another format: results already given.
row	Target	dose-dependent thermal stabilisation call
11	FRA10AC1 (UniProt Q70Z53)	inactive: 0
12	EIF2B2 (UniProt P49770)	inactive: 0

# Next part:

row,Target,dose-dependent thermal stabilisation call
1,FTSJ3 (UniProt Q8IY81),inactive: 0
2,ELP6 (UniProt Q0PNE2),inactive: 0
3,FLNB (UniProt O75369),inactive: 0
4,EIF3J (UniProt O75822),inactive: 0
5,FBXO22 (UniProt Q8NEZ5),inactive: 0
6,ELP2 (UniProt Q6IA86),inactive: 0
7,FAM221A (UniProt A4D161),inactive: 0
8,EXOSC2 (UniProt Q13868),active: 1
9,EIF1AX (UniProt P47813),inactive: 0
10,EIF4G2 (UniProt P78344),inactive: 0
11,FAM193B (UniProt Q96PV7),inactive: 0
12,EIF2B1 (UniProt Q14232),inactive: 0
13,FH (UniProt P07954),inactive: 0
14,ENAH (UniProt Q8N8S7),inactive: 0
15,FAM208A (UniProt Q9UK61),active: 1
16,FSCN1 (UniProt Q16658),inactive: 0
17,FDPS (UniProt P14324),inactive: 0
18,ELMSAN1 (UniProt Q6PJG2),inactive: 0
